Measured values published in PubChem BioAssay AID485297 (National Center for Advancing Translational Sciences (NCATS), 2010).
In all, about 320,000 compounds went through this assay and about 9,100 (2.8%) were called active. Not shown: some 3% with an inconclusive outcome. What follows is the remainder of the data, with few or none of the actives. Entries without a call were filed so in the source.

Assay: qHTS Assay for Rab9 Promoter Activators; note: % of control where 0% means no effect; nearly all actives have a fitted effect of over 60% in size
Conditions: Huh7 Rab9 promoter-luciferase reporter, luminescence, 24 h; at 9.22 µM (top of the series; calls come from the whole dose curve)
Source text: NIH Chemical Genomics Center [NCGC] NIH Molecular Libraries Probe Production centers Network [MLPCN] MLPCN Grant: MH089537-01 Assay Submitter (PI): Yiannis A. Ioannou NCGC Assay Overview: Niemann Pick Type C (NPC) is a rare neurodegenerative lipidosis that is characterized by lipid storage in the endosomal/lysosomal system. Treatment modalities for this devastating disease are currently non-existent due to the severe obstacles associated with accessing the central nervous system with proteins or genes (Ioannou, 2000). We have developed a new paradigm, termed "Orphan Receptor Bypass Therapy" (ORByT), to address these disorders. This paradigm posits the existence of endogenous "suppressor" proteins whose expression can dramatically improve LSD pathogenesis. The goal is the identification/discovery of small chemical compounds that can modulate the expression of these proteins and provide a new treatment modality for these devastating disorders. One such protein whose overexpression reverses aspects of the NPC phenotype is Rab9. […]
The Rab9 promoter is cloned in front of the luciferase reporter gene, therefore […] promoter activation results in luciferase expression. […] 7.Read using the luminescence protocol on the ViewLux plate reader (Perkin Elmer).
For `COc1ccc(C(=O)Nn2c(SCC(=O)N3CCC(C)CC3)nc3ccccc3c2=O)cc1`, the activation, negative = inhibition was 62.9%.
In the case of `Cc1cc(C)cc(C(=O)NC(CC(N)=O)c2ccc(NCC3CC3)c([N+](=O)[O-])c2)c1` (configuration not stated), the activation, negative = inhibition is reported as -57.6%.
